In paper PMC9925306:
Like-named read-outs stand apart in the source and are kept apart here. These are yes or no findings as the source states them, for the method shown. In cells and extracts the contact can be indirect. Some entries that bind do so weakly or less than the wild type. For some assays here: Tags and fused reporters may be left off the sequences shown.

Sequences of proteins named here, by UniProt entry; tags and fusion partners are left off.
UniProt P03129: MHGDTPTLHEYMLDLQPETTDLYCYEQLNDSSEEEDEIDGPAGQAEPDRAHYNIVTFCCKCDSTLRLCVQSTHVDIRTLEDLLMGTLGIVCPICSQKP
UniProt P06788: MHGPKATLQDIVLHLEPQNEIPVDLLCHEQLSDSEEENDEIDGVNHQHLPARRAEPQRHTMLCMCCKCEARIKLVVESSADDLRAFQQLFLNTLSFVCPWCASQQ
UniProt P03126: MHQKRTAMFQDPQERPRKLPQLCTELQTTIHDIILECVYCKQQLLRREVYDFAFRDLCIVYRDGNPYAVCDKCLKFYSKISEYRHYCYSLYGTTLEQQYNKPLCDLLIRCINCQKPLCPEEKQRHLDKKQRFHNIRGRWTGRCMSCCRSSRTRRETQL
UniProt P06463: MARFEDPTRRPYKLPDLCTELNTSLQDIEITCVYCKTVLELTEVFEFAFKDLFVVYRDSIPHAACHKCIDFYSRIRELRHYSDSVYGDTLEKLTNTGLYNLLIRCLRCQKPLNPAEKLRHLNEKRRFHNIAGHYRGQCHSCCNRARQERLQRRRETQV
UniProt P19447: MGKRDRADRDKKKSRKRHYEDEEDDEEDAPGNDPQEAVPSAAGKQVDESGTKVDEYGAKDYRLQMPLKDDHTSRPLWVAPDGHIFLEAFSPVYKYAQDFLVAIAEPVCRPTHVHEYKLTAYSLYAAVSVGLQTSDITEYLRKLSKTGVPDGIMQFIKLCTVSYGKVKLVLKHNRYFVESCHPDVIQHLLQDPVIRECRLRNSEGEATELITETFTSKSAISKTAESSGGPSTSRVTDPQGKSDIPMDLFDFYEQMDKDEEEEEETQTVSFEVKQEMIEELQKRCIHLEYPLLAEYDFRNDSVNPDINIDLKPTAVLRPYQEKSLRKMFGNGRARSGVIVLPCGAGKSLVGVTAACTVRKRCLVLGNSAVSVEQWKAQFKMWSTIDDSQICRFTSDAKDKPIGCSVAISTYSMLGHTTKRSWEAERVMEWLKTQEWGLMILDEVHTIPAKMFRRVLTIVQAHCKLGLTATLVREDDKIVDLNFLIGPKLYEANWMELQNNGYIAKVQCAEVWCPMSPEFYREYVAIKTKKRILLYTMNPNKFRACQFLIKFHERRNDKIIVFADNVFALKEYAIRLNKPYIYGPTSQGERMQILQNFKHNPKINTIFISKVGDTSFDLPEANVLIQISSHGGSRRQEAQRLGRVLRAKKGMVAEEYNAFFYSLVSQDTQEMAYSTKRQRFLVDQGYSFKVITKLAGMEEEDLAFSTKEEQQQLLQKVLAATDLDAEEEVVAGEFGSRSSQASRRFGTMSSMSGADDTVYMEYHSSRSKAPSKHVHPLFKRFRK

Key:
[1] = biological target: 3xFLAG-HPV16 E7 (HPV16) (UniProt P03129); assay: co-IP; HEK-293T co-transfected with pCineo-3xFLAG HPV16 E6 or E7 and pSpica-N1 (Gluc1 fusion); lysis in 50 mM Tris-HCl pH7.4, 150 mM NaCl, 1 mM EDTA, 1% Triton X-100; anti-Flag M2 magnetic beads overnight; blot with anti-Gaussia luciferase antibody
[2] = biological target: Gluc2-HPV16 E7 (HPV16) (UniProt P03129); assay: split reporter; Gaussia princeps luciferase complementation assay (GPCA): HEK-293T co-transfected with 100 ng pSpica-N2-HPV E6 or E7 (Gluc2) and 100 ng pSpica-N1 (Gluc1, DNA repair library); 24 h, Renilla lysis buffer 30 min at room temperature, luminescence as RLU or normalized luminescence ratio (NLR)
[3] = biological target: Gluc2-HPV18 E7 (HPV18) (UniProt P06788); assay: as above
[4] = biological target: T1, Gluc2-HPV33 E7 (HPV33) (UniProt P06429); assay: as above
T1 sequence: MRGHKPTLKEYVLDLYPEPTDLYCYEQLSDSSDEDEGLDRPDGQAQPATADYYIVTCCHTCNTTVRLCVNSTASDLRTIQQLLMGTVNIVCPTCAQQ

[5] = biological target: T2, Gluc2-HPV39 E7 (HPV39) (UniProt P24837); assay: as above
T2 sequence: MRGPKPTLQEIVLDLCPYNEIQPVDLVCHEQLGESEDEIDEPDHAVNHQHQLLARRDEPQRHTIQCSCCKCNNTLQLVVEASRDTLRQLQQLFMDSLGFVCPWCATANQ

[6] = biological target: 3xFLAG-HPV16 E6 (HPV16) (UniProt P03126); assay: co-IP; HEK-293T co-transfected with pCineo-3xFLAG HPV16 E6 or E7 and pSpica-N1 (Gluc1 fusion); lysis in 50 mM Tris-HCl pH7.4, 150 mM NaCl, 1 mM EDTA, 1% Triton X-100; anti-Flag M2 magnetic beads overnight; blot with anti-Gaussia luciferase antibody
[7] = biological target: Gluc2-HPV16 E6 (HPV16) (UniProt P03126); assay: split reporter; Gaussia princeps luciferase complementation assay (GPCA): HEK-293T co-transfected with 100 ng pSpica-N2-HPV E6 or E7 (Gluc2) and 100 ng pSpica-N1 (Gluc1, DNA repair library); 24 h, Renilla lysis buffer 30 min at room temperature, luminescence as RLU or normalized luminescence ratio (NLR)
[8] = biological target: Gluc2-HPV18 E6 (HPV18) (UniProt P06463); assay: as above
[9] = biological target: Gluc2-HPV33 E6 (HPV33) (UniProt P06427); assay: as above
[10] = biological target: Gluc2-HPV39 E6 (HPV39) (UniProt P24835); assay: as above
[11] = biological target: Gluc2-HPV16 E6 (HPV16) (UniProt P03126); assay: as above; remark: listed apart in the source
[12] = biological target: Gluc2-HPV18 E6 (HPV18) (UniProt P06463); assay: as above; remark: listed apart in the source
[13] = biological target: Gluc2-HPV33 E6 (HPV33) (UniProt P06427); assay: as above; remark: listed apart in the source
[14] = biological target: Gluc2-HPV39 E6 (HPV39) (UniProt P24835); assay: as above; remark: listed apart in the source
[15] = biological target: Gluc2-HPV16 E7 (HPV16) (UniProt P03129); assay: as above; remark: listed apart in the source
[16] = biological target: Gluc2-HPV18 E7 (HPV18) (UniProt P06788); assay: as above; remark: listed apart in the source
[17] = biological target: T1, Gluc2-HPV33 E7 (HPV33); assay: as above; remark: listed apart in the source
[18] = biological target: T2, Gluc2-HPV39 E7 (HPV39); assay: as above; remark: listed apart in the source

Measured: binding

Gluc1-PNKP (from UniProt Q96T60 1-521)
binds: [1] | [2] | [3] | [4] | [5]

Gluc1-ERCC3 (from UniProt P19447 1-782)
binds: [6] | [1] | [7] | [2] | [8] | [3] | [9] | [4] | [10] | [5]

Gluc1-CHEK2 (from UniProt O96017 1-543)
binds: [6] | [1] | [7] | [2] | [8] | [3] | [9] | [4] | [10] | [5]

B1: Gluc1-RMI1 (protein, UniProt Q9H9A7 1-625)
chain: MNVTSIALRAETWLLAAWHVKVPPMWLEACINWIQEENNNVNLSQAQMNKQVFEQWLLTDLRDLEHPLLPDGILEIPKGELNGFYALQINSLVDVSQPAYSQIQKLRGKNTTNDLVTAEAQVTPKPWEAKPSRMLMLQLTDGIVQIQGMEYQPIPILHSDLPPGTKILIYGNISFRLGVLLLKPENVKVLGGEVDALLEEYAQEKVLARLIGEPDLVVSVIPNNSNENIPRVTDVLDPALGPSDEELLASLDENDELTANNDTSSERCFTTGSSSNTIPTRQSSFEPEFVISPRPKEEPSNLSIHVMDGELDDFSLEEALLLEETVQKEQMETKELQPLTFNRNADRSIERFSHNPNTTNNFSLTCKNGNNNWSEKNVSEQMTNEDKSFGCPSVRDQNRSIFSVHCNVPLAHDFTNKEKNLETDNKIKQTSSSDSHSLNNKILNREVVNYVQKRNSQISNENDCNLQSCSLRSSENSINLSIAMDLYSPPFVYLSVLMASKPKEVTTVKVKAFIVTLTGNLSSSGGIWSITAKVSDGTAYLDVDFVDEILTSLIGFSVPEMKQSKKDPLQYQKFLEGLQKCQRDLIDLCCLMTISFNPSLSKAMVLALQDVNMEHLENLKKRLNK
binds: [6] | [11] | [12] | [13] | [14]

B2: Gluc1-POLDIP2 (protein, UniProt Q9Y2S7 52-368)
chain: SSRNRPEGKVLETVGVFEVPKQNGKYETGQLFLHSIFGYRGVVLFPWQARLYDRDVASAAPEKAENPAGHGSKEVKGKTHTYYQVLIDARDCPHISQRSQTEAVTFLANHDDSRALYAIPGLDYVSHEDILPYTSTDQVPIQHELFERFLLYDQTKAPPFVARETLRAWQEKNHPWLELSDVHRETTENIRVTVIPFYMGMREAQNSHVYWWRYCIRLENLDSDVVQLRERHWRIFSLSGTLETVRGRGVVGREPVLSKEQPAFQYSSHVSLQASSGHMWGTFRFERPDGSHFDVRIPPFSLESNKDEKTPPSGLHW
binds: [1] | [15] | [16] | [17] | [18]
